# This is one part of the list.
# The chains behind the UniProt entries cited, without tags or fusion partners. Where a name states a change or a piece, a line headed by the entry shows the natural chain unless it says otherwise.
# UniProt Q9Y371: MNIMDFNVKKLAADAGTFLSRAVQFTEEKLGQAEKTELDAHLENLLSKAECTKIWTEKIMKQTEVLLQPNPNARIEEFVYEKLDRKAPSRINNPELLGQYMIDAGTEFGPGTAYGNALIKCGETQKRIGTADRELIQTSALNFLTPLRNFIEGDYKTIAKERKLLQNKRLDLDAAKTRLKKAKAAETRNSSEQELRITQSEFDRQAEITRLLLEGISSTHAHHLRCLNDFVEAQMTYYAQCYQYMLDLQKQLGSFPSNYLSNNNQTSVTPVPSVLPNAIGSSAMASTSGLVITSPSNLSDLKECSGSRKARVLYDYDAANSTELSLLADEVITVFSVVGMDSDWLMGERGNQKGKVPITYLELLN
# UniProt P63208, whole entry, looked up: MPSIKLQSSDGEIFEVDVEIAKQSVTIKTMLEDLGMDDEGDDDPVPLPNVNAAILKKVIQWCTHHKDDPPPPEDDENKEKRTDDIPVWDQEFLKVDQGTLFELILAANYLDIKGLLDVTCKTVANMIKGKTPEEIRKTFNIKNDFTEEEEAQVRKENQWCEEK
# UniProt P55011: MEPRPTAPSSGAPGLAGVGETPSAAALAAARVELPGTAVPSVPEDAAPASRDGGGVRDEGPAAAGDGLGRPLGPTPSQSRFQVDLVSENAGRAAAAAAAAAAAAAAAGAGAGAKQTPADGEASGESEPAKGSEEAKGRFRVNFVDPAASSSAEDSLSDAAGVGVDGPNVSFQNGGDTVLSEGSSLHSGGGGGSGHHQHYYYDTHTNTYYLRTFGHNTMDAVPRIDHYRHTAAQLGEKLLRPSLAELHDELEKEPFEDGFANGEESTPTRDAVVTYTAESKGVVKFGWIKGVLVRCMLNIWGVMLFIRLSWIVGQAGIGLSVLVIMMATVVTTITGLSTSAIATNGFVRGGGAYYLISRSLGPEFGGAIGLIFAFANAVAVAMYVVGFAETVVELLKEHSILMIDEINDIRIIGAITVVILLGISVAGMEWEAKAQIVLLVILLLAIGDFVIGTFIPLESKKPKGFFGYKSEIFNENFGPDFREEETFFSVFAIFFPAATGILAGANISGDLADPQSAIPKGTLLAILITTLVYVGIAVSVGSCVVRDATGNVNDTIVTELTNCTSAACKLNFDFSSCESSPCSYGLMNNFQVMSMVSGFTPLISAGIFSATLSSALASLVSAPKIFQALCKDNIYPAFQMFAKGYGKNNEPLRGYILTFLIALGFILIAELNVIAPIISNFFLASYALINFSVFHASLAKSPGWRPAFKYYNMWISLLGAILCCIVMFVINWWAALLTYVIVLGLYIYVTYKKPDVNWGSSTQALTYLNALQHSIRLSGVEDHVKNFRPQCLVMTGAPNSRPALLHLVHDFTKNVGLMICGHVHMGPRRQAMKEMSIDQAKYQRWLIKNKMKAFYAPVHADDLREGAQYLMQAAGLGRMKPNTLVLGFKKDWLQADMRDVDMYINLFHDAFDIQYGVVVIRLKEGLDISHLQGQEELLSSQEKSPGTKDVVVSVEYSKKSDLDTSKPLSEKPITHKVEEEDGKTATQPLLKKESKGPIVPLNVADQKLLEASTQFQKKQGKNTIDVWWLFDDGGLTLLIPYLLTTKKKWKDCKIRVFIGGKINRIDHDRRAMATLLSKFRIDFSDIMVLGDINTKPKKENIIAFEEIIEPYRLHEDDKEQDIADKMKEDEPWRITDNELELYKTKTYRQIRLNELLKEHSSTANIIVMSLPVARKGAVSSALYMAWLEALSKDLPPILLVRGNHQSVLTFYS
# UniProt Q12872: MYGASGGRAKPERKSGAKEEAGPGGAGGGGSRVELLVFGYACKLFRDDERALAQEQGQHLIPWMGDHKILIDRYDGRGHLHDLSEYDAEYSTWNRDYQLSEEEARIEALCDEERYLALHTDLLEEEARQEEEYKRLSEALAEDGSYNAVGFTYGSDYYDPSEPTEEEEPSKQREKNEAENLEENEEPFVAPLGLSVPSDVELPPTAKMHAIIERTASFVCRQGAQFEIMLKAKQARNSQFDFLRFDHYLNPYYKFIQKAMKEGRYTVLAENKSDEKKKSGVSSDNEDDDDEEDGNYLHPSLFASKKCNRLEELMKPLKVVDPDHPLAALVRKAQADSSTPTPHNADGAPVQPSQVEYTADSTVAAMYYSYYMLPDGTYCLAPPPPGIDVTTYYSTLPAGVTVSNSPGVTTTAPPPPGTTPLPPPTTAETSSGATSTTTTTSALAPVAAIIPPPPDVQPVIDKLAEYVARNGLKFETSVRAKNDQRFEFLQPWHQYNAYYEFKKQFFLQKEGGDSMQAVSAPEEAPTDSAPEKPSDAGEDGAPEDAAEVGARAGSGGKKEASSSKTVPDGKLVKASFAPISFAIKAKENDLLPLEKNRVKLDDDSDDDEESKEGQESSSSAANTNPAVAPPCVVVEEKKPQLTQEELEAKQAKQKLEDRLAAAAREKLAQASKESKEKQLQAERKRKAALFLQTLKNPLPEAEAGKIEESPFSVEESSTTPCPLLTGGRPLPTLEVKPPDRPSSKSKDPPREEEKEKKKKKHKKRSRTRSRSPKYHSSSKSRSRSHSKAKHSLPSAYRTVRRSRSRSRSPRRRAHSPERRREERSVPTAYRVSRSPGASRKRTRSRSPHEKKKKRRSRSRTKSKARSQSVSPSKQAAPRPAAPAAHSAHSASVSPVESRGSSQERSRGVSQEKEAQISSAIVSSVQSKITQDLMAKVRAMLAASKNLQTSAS
# UniProt Q9UGK8: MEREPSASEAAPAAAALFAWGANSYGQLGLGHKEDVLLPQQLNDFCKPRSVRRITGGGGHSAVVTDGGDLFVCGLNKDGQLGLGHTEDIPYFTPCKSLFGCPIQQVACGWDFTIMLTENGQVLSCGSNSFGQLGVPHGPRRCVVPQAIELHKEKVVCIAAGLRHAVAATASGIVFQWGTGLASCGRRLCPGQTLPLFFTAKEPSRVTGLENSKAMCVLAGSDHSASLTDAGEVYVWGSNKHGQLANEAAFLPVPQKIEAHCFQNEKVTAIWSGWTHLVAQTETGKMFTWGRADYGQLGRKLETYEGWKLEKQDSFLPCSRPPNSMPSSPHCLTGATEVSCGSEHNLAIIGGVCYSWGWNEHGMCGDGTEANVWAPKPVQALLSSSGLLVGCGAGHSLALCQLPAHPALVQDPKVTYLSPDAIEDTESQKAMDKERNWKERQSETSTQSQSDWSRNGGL
# UniProt A0MZ66, whole entry, looked up: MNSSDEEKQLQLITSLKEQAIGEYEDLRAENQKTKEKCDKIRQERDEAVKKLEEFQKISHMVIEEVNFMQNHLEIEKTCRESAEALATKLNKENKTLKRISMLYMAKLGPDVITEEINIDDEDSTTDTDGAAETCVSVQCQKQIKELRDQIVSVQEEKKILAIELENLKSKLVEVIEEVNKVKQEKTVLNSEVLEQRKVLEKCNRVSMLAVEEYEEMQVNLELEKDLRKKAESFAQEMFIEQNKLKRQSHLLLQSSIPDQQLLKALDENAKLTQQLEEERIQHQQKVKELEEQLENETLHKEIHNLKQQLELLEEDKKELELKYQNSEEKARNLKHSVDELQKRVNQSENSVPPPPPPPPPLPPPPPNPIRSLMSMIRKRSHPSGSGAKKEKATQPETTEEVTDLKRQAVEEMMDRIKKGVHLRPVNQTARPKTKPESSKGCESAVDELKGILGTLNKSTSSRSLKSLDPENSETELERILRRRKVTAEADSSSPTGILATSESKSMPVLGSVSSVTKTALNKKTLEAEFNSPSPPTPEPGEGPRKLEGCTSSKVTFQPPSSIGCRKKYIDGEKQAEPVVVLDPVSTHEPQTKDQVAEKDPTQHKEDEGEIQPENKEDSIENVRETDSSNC
# UniProt O75182: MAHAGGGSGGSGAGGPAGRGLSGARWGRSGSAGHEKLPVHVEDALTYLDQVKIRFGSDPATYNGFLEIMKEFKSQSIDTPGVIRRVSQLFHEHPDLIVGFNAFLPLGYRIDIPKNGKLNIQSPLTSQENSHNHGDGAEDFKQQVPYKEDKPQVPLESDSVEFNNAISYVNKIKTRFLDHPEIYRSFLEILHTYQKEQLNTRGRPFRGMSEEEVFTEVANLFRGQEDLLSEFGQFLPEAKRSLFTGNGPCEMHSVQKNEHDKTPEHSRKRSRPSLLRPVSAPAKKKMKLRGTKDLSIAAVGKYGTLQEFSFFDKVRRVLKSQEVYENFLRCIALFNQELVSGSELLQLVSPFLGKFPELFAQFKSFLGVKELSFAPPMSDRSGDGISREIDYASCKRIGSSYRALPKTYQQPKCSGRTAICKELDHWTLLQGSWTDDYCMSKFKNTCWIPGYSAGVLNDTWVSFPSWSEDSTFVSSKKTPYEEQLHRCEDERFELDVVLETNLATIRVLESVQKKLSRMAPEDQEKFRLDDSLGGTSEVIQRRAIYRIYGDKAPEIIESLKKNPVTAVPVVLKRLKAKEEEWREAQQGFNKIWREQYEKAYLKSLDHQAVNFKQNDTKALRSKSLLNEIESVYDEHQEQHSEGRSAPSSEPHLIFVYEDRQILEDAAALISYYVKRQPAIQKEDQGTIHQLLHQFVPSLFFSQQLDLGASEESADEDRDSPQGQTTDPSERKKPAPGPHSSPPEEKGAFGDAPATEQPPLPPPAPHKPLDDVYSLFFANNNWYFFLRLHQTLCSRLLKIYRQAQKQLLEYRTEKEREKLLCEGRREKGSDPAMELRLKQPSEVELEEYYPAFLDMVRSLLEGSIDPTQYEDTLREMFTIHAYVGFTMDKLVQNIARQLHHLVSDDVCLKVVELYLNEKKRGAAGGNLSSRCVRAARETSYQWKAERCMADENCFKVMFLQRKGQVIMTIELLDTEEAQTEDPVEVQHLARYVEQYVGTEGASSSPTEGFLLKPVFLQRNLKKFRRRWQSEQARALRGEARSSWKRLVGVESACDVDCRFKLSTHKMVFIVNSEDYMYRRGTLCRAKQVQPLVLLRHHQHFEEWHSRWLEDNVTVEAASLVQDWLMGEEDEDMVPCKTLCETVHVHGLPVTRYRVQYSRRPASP
# UniProt Q8IUQ4: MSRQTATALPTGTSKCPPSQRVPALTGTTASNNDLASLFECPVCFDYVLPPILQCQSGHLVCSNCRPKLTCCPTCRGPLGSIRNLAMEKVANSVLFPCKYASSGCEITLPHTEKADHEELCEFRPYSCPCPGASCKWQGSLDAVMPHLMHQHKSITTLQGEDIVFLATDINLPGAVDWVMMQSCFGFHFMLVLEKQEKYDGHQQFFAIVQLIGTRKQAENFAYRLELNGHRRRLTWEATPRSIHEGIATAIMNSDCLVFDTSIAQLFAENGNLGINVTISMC
# UniProt Q9NR46: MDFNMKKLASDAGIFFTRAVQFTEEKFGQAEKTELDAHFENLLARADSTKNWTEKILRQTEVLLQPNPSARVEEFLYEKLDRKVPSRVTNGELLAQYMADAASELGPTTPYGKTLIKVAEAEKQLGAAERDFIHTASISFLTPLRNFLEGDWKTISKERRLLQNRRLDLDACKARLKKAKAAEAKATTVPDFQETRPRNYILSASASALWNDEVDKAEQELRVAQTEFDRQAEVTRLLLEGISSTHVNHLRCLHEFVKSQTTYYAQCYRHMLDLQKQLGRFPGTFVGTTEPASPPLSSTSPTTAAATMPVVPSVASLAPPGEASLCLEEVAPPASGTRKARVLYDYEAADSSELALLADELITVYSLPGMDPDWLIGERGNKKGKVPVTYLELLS
# UniProt Q9NRA2: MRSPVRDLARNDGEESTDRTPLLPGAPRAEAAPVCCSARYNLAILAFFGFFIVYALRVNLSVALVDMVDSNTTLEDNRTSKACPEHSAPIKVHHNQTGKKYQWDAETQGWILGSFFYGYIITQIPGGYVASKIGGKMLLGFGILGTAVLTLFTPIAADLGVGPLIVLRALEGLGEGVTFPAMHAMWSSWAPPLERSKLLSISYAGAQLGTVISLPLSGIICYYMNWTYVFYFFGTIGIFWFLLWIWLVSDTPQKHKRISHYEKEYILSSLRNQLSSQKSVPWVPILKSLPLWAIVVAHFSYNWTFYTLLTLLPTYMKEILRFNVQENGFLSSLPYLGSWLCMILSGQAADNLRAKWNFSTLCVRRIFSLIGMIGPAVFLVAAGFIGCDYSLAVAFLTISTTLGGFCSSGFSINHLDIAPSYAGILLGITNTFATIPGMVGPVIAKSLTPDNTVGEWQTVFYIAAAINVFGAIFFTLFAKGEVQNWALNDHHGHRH
# UniProt P36955: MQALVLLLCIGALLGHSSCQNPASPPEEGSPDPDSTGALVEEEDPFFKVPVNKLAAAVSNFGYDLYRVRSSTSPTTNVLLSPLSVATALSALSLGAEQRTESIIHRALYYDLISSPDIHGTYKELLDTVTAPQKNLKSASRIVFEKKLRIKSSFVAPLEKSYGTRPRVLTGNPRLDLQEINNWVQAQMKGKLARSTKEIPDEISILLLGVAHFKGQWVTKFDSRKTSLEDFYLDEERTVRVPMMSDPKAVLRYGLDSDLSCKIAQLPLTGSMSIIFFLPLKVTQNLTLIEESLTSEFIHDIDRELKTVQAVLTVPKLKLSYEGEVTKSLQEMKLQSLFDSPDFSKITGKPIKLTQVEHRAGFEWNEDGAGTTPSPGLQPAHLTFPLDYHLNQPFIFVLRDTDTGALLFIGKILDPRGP
# Assays:
# Assay in all cases: log2 fold change, soluble protein after heating vs DMSO (PISA); higher = thermal stabilisation; K562 lysate, 10 uM; active = over 0.2 and 3.5 SD of the protein, either way, in both replicates (recomputed)
# nilotinib = compound: Cc1cn(-c2cc(NC(=O)c3ccc(C)c(Nc4nccc(-c5cccnc5)n4)c3)cc(C(F)(F)F)c2)cn1 [nilotinib]
# Procedure, shortened: (§1)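 The values are log-two fold changes in thermal stability compared with solvent controls and come from duplicates. They were obtained by TMTpro 16plex LC-MS/MS, with channel sums equalised, on the supernatant after 21,000xg for 90 min. That supernatant came from crude K562 extract at 1 mg/mL protein treated with 10 μM compound for 30 min, heated for 3 min across 48°C-58°C, pooled and brought to 0.5% NP-40 at 4°C.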
# [1] = compound: Cc1nc(Nc2n[nH]c3c2CN(C(=O)N[C@H](CN(C)C)c2ccccc2)C3(C)C)c2sccc2n1
# Procedure, shortened: as §1
# dasatinib = compound: Cc1nc(Nc2ncc(C(=O)Nc3c(C)cccc3Cl)s2)cc(N2CCN(CCO)CC2)n1 [dasatinib]
# Procedure, shortened: as §1
# [2] = compound: Cc1ncc(-c2ccnc(Nc3ccc(S(C)(=O)=O)cc3)n2)n1C(C)C
# Procedure, shortened: as §1
# [3] = compound: Cn1cc(-c2ccc3c(c2)CCN3C(=O)Cc2cccc(C(F)(F)F)c2)c2c(N)ncnc21
# Procedure, shortened: as §1
# quisinostat = compound: Cn1cc(CNCC2CCN(c3ncc(C(=O)NO)cn3)CC2)c2ccccc21 [quisinostat]
# Procedure, shortened: as §1
# tipifarnib = compound: Cn1cncc1[C@@](N)(c1ccc(Cl)cc1)c1ccc2c(c1)c(-c1cccc(Cl)c1)cc(=O)n2C [tipifarnib]
# Procedure, shortened: as §1
# [4] = compound: NC(=O)Nc1cc(-c2cccc(F)c2)sc1C(=O)N[C@H]1CCCNC1
# Procedure, shortened: as §1
# [5] = compound: NC(=O)c1cnc(N[C@@H]2CCCC[C@@H]2N)nc1Nc1cccc(-n2nccn2)c1
# Procedure, shortened: as §1
# [6] = compound: NC1(c2ccc(-c3nc4ccn5c(=O)[nH]nc5c4cc3-c3ccccc3)cc2)CCC1
# Procedure, shortened: as §1
Target,log2 fold change (nilotinib),log2 fold change [1],log2 fold change (dasatinib),log2 fold change [2],log2 fold change [3],log2 fold change (quisinostat),log2 fold change (tipifarnib),log2 fold change [4],log2 fold change [5],log2 fold change [6]
SH3GLB1 isoform 2 (UniProt Q9Y371),inactive: -0.003,inactive: 0.027,inactive: -0.037,inactive: 0.016,inactive: -0.001,inactive: 0.06,inactive: -0.063,inactive: 0.011,inactive: 0.017,inactive: 0.016
SKP1 (UniProt P63208),inactive: 0,inactive: 0.021,inactive: 0.041,inactive: 0.022,inactive: 0.003,inactive: -0.024,inactive: -0.005,inactive: -0.017,inactive: -0.03,inactive: -0.002
SH2B1 (UniProt Q9NRF2),inactive: 0.041,inactive: -0.108,inactive: 0.05,inactive: 0.033,inactive: -0.211,inactive: 0.033,inactive: -0.048,inactive: -0.056,inactive: -0.113,inactive: 0.144
SKA3 (UniProt Q8IX90),inactive: -0.046,inactive: -0.018,inactive: -0.028,inactive: 0.023,inactive: 0.002,inactive: -0.093,inactive: -0.02,inactive: 0.044,inactive: 0.034,inactive: -0.004
SLC11A2 isoform 3 (UniProt P49281),inactive: -0.099,inactive: -0.108,inactive: 0.07,inactive: 0.03,inactive: -0.048,inactive: -0.112,inactive: -0.089,inactive: 0.055,inactive: -0.042,inactive: 0.111
SH3GL3 isoform 3 (UniProt Q99963),inactive: -0.075,inactive: -0.113,inactive: -0.067,inactive: 0.096,inactive: -0.007,inactive: -0.033,inactive: 0.029,inactive: 0.075,inactive: 0.024,inactive: -0.011
SHC1 isoform 6 (UniProt P29353),inactive: 0.034,inactive: 0.011,inactive: 0.046,inactive: -0.02,inactive: -0.005,inactive: 0.022,inactive: 0.006,inactive: -0.036,inactive: -0.029,inactive: -0.001
SERPINB9 (UniProt P50453),inactive: 0.013,inactive: -0.001,inactive: 0.027,inactive: 0.018,inactive: -0.031,inactive: 0.005,inactive: 0.02,inactive: -0.008,inactive: -0.011,inactive: -0.016
SLC12A2 (UniProt P55011),inactive: -0.04,inactive: 0.004,inactive: 0.008,inactive: -0.007,inactive: 0.005,inactive: 0.016,inactive: -0.04,inactive: 0.048,inactive: 0.008,inactive: -0.01
SETX isoform 4 (UniProt Q7Z333),inactive: -0.025,inactive: -0.031,inactive: -0.05,inactive: 0.007,inactive: -0.004,inactive: -0.034,inactive: 0.037,inactive: 0.028,inactive: 0.037,inactive: -0.025
SIRT2 (UniProt Q8IXJ6),inactive: 0.005,inactive: 0.041,inactive: 0.015,inactive: -0.005,inactive: 0.043,inactive: 0.017,inactive: -0.086,inactive: -0.05,inactive: -0.015,inactive: -0.027
SFSWAP isoform 2 (UniProt Q12872),inactive: -0.013,inactive: 0.019,inactive: 0.014,inactive: 0.09,inactive: 0.011,inactive: -0.012,inactive: 0.01,inactive: -0.074,inactive: -0.053,inactive: 0.067
SETD1A (UniProt O15047),inactive: -0.03,inactive: 0.022,inactive: -0.032,inactive: 0.022,inactive: -0.022,inactive: -0.023,inactive: -0.009,inactive: 0.009,inactive: -0.023,inactive: 0.029
SH2D2A isoform 2 (UniProt Q9NP31),inactive: -0.151,inactive: -0.029,inactive: -0.058,inactive: 0.018,inactive: -0.079,inactive: 0.111,inactive: -0.051,inactive: 0.015,inactive: 0.051,inactive: 0.013
SERGEF (UniProt Q9UGK8),inactive: -0.001,inactive: -0.027,inactive: 0.021,inactive: 0.053,inactive: -0.016,inactive: 0.006,inactive: -0.001,inactive: 0.138,inactive: -0.037,inactive: -0.041
SETD2 (UniProt Q9BYW2),inactive: -0.002,inactive: -0.08,inactive: -0.028,inactive: 0.063,inactive: 0.013,inactive: -0.055,inactive: -0.053,inactive: 0,inactive: -0.003,inactive: 0.004
SHMT2 (UniProt P34897),inactive: 0.022,inactive: -0.013,inactive: -0.005,inactive: 0.006,inactive: -0.006,inactive: 0.033,inactive: 0.009,inactive: -0.013,inactive: 0.004,inactive: 0.006
SHTN1 (UniProt A0MZ66),inactive: 0.001,inactive: 0.009,inactive: -0.016,inactive: -0.002,inactive: 0.015,inactive: -0.011,inactive: 0.002,inactive: 0.005,inactive: 0.007,inactive: 0.004
SIN3B (UniProt O75182),active: 1.42,inactive: -0.15,,inactive: 0.839,,inactive: -0.079,inactive: 0.086,inactive: 0.077,,
SIAH1 isoform 2 (UniProt Q8IUQ4),inactive: 0.058,inactive: 0.115,,inactive: 0.02,,inactive: -0.016,inactive: -0.178,inactive: 0.01,inactive: -0.037,inactive: 0.009
SIDT2 isoform 2 (UniProt Q8NBJ9),inactive: 0.292,inactive: 0.058,inactive: -0.017,inactive: -0.052,inactive: -0.041,inactive: -0.04,inactive: -0.368,inactive: 0.05,inactive: -0.096,inactive: -0.008
SLC18B1 (UniProt Q6NT16),inactive: -0.026,inactive: 0.062,,inactive: -0.02,,inactive: 0.03,inactive: 0.004,inactive: 0.056,inactive: 0.012,inactive: -0.016
SIPA1L1 (UniProt O43166),inactive: 0.04,inactive: -0.08,,inactive: -0.024,,inactive: -0.02,inactive: 0,inactive: -0.022,inactive: 0.038,inactive: -0.069
SH3GLB2 (UniProt Q9NR46),inactive: 0.008,inactive: -0.008,inactive: 0,inactive: -0.051,inactive: 0.049,inactive: 0.021,inactive: -0.023,inactive: -0.041,inactive: 0.021,inactive: 0.062
SF3B4 (UniProt Q15427),inactive: 0.007,inactive: 0.062,inactive: 0.088,inactive: -0.016,inactive: -0.028,inactive: -0.055,inactive: 0.037,inactive: 0.008,inactive: -0.001,inactive: -0.009
SETD6 (UniProt Q8TBK2),inactive: -0.074,inactive: -0.092,inactive: 0.251,inactive: -0.009,inactive: 0.047,,inactive: 0.004,,,inactive: -0.113
SLC17A5 (UniProt Q9NRA2),inactive: -0.004,inactive: 0.105,inactive: -0.186,inactive: -0.023,inactive: 0.168,,inactive: 0.081,,inactive: -0.165,inactive: -0.029
SERPINF1 (UniProt P36955),inactive: -0.007,inactive: -0.032,inactive: 0.001,inactive: 0.001,inactive: -0.106,inactive: 0.019,inactive: -0.007,inactive: -0.004,inactive: -0.027,inactive: 0.001
SGF29 (UniProt Q96ES7),inactive: -0.007,inactive: -0.012,inactive: 0.009,inactive: 0.027,inactive: 0.05,inactive: -0.041,inactive: -0.017,inactive: 0.016,inactive: 0.033,inactive: -0.025

# Single records, from the list above. Values in the order: log2 fold change (nilotinib) | log2 fold change [1] | log2 fold change (dasatinib) | log2 fold change [2] | log2 fold change [3] | log2 fold change (quisinostat) | log2 fold change (tipifarnib) | log2 fold change [4] | log2 fold change [5] | log2 fold change [6]
# SKP1 (UniProt P63208) is listed with inactive: 0 | inactive: 0.021 | inactive: 0.041 | inactive: 0.022 | inactive: 0.003 | inactive: -0.024 | inactive: -0.005 | inactive: -0.017 | inactive: -0.03 | inactive: -0.002
# SHC1 isoform 6 (UniProt P29353) is listed with inactive: 0.034 | inactive: 0.011 | inactive: 0.046 | inactive: -0.02 | inactive: -0.005 | inactive: 0.022 | inactive: 0.006 | inactive: -0.036 | inactive: -0.029 | inactive: -0.001

# Reference: the supplement of paper PMC10849652
